PubChem BioAssay AID1259425 – University of Nebraska Medical Center | 2018
Screen: 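Seek colon cancer weak points whose silencing resembles KSR1 loss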 (primary screen). System: HCT116 human colon cancer cells. Reagents: siRNA pool against human genes, 50 nM siRNA. Detection: 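After 50 nM siRNA pool, branched-DNA assay measures six marker transcripts per well, minus blank, normalised to the geometric mean of two housekeeping transcripts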. Direction: BNIP3L mRNA: higher = more BNIP3L transcript after knockdown; NDRG1 mRNA: higher = more NDRG1 transcript after knockdown.
The deposit covers about 14,000 reagents; shown is an unselected part. Further read-outs or replicates are left out here. Not given: the time to read-out.

{"gene knocked down": "CLDN15 (GeneID 24146)", "BNIP3L mRNA, set 1": 0.0813, "NDRG1 mRNA, set 1": 0.294}
{"gene knocked down": "UPK3A (GeneID 7380)", "BNIP3L mRNA, set 1": 0.0732, "NDRG1 mRNA, set 1": 0.308}
{"gene knocked down": "ZMYM6 (GeneID 9204)", "BNIP3L mRNA, set 1": 0.065, "NDRG1 mRNA, set 1": 0.204}
{"gene knocked down": "CACNA1A (GeneID 773)", "BNIP3L mRNA, set 1": 0.194, "NDRG1 mRNA, set 1": 0.575}
{"gene knocked down": "ADNP (GeneID 23394)", "BNIP3L mRNA, set 1": 0.139, "NDRG1 mRNA, set 1": 0.294}
{"gene knocked down": "GTF2F1 (GeneID 2962)", "BNIP3L mRNA, set 1": 0.07, "NDRG1 mRNA, set 1": 0.209}
{"gene knocked down": "FOXI1 (GeneID 2299)", "BNIP3L mRNA, set 1": 0.0811, "NDRG1 mRNA, set 1": 0.0354}
{"gene knocked down": "STAT5A (GeneID 6776)", "BNIP3L mRNA, set 1": 0.0849, "NDRG1 mRNA, set 1": 0.253}
{"gene knocked down": "MTFR1L (GeneID 56181)", "BNIP3L mRNA, set 1": 0.188, "NDRG1 mRNA, set 1": 0.313}
{"gene knocked down": "RNF144A (GeneID 9781)", "BNIP3L mRNA, set 1": 0.106, "NDRG1 mRNA, set 1": 0.265}
{"gene knocked down": "PPP1R3D (GeneID 5509)", "BNIP3L mRNA, set 1": 0.107, "NDRG1 mRNA, set 1": 0.222}
{"gene knocked down": "FHIP1B (GeneID 84067)", "BNIP3L mRNA, set 1": 0.267, "NDRG1 mRNA, set 1": 0.34}
{"gene knocked down": "SPAG8 (GeneID 26206)", "BNIP3L mRNA, set 1": 0.0815, "NDRG1 mRNA, set 1": 0.121}
{"gene knocked down": "MRPL30 (GeneID 51263)", "BNIP3L mRNA, set 1": 0.103, "NDRG1 mRNA, set 1": 0.304}
{"gene knocked down": "GGNBP2 (GeneID 79893)", "BNIP3L mRNA, set 1": 0.0869, "NDRG1 mRNA, set 1": 0.499}
{"gene knocked down": "DOCK9 (GeneID 23348)", "BNIP3L mRNA, set 1": 0.147, "NDRG1 mRNA, set 1": 0.0802}
{"gene knocked down": "MOGS (GeneID 7841)", "BNIP3L mRNA, set 1": 0.0681, "NDRG1 mRNA, set 1": 0.0385}
{"gene knocked down": "SNX14 (GeneID 57231)", "BNIP3L mRNA, set 1": 0.17, "NDRG1 mRNA, set 1": 0.463}
{"gene knocked down": "IGDCC4 (GeneID 57722)", "BNIP3L mRNA, set 1": 0.113, "NDRG1 mRNA, set 1": 0.0854}
{"gene knocked down": "TAAR8 (GeneID 83551)", "BNIP3L mRNA, set 1": 0.132, "NDRG1 mRNA, set 1": 0.125}
{"gene knocked down": "GAA (GeneID 2548)", "BNIP3L mRNA, set 1": 0.0804, "NDRG1 mRNA, set 1": 0.194}
{"gene knocked down": "MBD5 (GeneID 55777)", "BNIP3L mRNA, set 1": 0.0654, "NDRG1 mRNA, set 1": 0.0953}
{"gene knocked down": "FAM230C (GeneID 26080)", "BNIP3L mRNA, set 1": 0.0819, "NDRG1 mRNA, set 1": 0.285}
{"gene knocked down": "HOXB8 (GeneID 3218)", "BNIP3L mRNA, set 1": 0.218, "NDRG1 mRNA, set 1": 0.272}
{"gene knocked down": "RPS6KA3 (GeneID 6197)", "BNIP3L mRNA, set 1": 0.143, "NDRG1 mRNA, set 1": 0.199}
{"gene knocked down": "POLR2M (GeneID 81488)", "BNIP3L mRNA, set 1": 0.126, "NDRG1 mRNA, set 1": 0.612}
{"gene knocked down": "GOT2 (GeneID 2806)", "BNIP3L mRNA, set 1": 0.217, "NDRG1 mRNA, set 1": 0.665}
{"gene knocked down": "RNF123 (GeneID 63891)", "BNIP3L mRNA, set 1": 0.163, "NDRG1 mRNA, set 1": 0.59}

A portion taken from the entries so far, for reference:
{"gene knocked down": "RNF144A (GeneID 9781)", "BNIP3L mRNA, set 1": 0.106, "NDRG1 mRNA, set 1": 0.265}
{"gene knocked down": "PPP1R3D (GeneID 5509)", "BNIP3L mRNA, set 1": 0.107, "NDRG1 mRNA, set 1": 0.222}
{"gene knocked down": "FHIP1B (GeneID 84067)", "BNIP3L mRNA, set 1": 0.267, "NDRG1 mRNA, set 1": 0.34}
{"gene knocked down": "SPAG8 (GeneID 26206)", "BNIP3L mRNA, set 1": 0.0815, "NDRG1 mRNA, set 1": 0.121}
